A short description of this assay: qHTS Assay to Find Inhibitors of Chronic Active B-Cell Receptor Signaling. To be noted: ABC-DLBCL IkBa-CBG/CBR reporter, luminescence ratio (green luciferase fused to IkBa over red control in TMD8 lymphoma cells), 4 h. In a few lines:
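TMD8 ABC-DLBCL cells carrying doxycycline-inducible green luciferase fused to IkappaBalpha plus unfused red luciferase were exposed to compounds (up to 46 uM) for 4 hrs at 37C. Activity came from the overlap-corrected green/red luminescence ratio.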
On the technique in general: In qHTS, concentration-response curves come from the screen itself.

[1] abbreviates: measured here: CBR red luminescence, cell number.
Where [2] appears, read: measured here: IkBa-CBG green luminescence.

This is one part of the list. These are further read-outs of the screen, such as a control signal, another cell line or another target. No call is given for them. The list favours compounds with an active or inconclusive main result. Potencies come from curve fits of mixed quality, noted in brackets.

As a reminder, the AC50 is the concentration at which the activity in the assay is half-maximal.

With `CCOc1ccc(NC(=S)NC(=O)C2CCCC2)cc1`, under setting [1], the AC50 is 35.5 µM [rising, single point].

Regarding `CC(=C\c1ccccc1)/C=C1/SC(=S)N(CCC(=O)O)C1=O`, the AC50 under setting [1] is 0.316 µM [falling, full curve].

Regarding `S=C(Nc1ccc(Cl)cc1Cl)Nn1cnnc1`, under setting [1], the AC50 is 1.84 µM [rising, full curve, poor fit].

For `S=c1nc2ccccc2c2nc(-c3ccccc3Br)[nH]n12`, the AC50 by setting is: under setting [1], 3.55 µM [rising, full curve]; under setting [2], 0.631 µM [falling, full curve, poor fit].

As to `O=C(NCCC1=CCCCC1)C(=O)NCC(c1ccco1)N1CCN(c2ccccc2F)CC1` (configuration not stated), the half-maximal activity concentration (AC50) under setting [1] was 0.517 µM [rising, full curve, poor fit].

As to `O=c1oc(-c2ccccc2Br)nc2ccccc12`, the half-maximal activity concentration (AC50) under setting [1] is 1.12 µM [rising, partial curve, poor fit].

With `CN(C)c1ccc(C(=O)NCC(c2cccs2)N2CCOCC2)cc1[N+](=O)[O-]` (configuration not stated), the AC50 under setting [1] is 23.1 µM [rising, partial curve].

For `COC(=O)[C@H](CC(C)C)NS(=O)(=O)N(Cc1ccccc1)[C@@H](CC(C)C)C(=O)OC`, the half-maximal activity concentration (AC50) under setting [1] was 29.1 µM [falling, single point].

For the compound `O=S(=O)(Nc1ccc2c(c1)nc1n2CCN(Cc2ccccc2)C1)c1ccccc1`, the concentration at half-maximal activity (AC50) under setting [1] was 6.51 µM [falling, partial curve].

Regarding `CC(=O)N1CCC(C(=O)Nc2ccc3c(c2)CCC3)CC1`, the concentration at half-maximal activity (AC50) under setting [1] is 14.1 µM [rising, single point].

`CCCOc1ccc([C@@H]2C3CN(C(=O)OCC)CC=C3C(C#N)=C(N)C2(C#N)C#N)cc1OC` (some centres not stated): under setting [1], the half-maximal activity concentration (AC50) was 16.4 µM [falling, partial curve, poor fit].

In the case of `COc1ccc(N(CC(=O)NCCSc2ccccn2)S(C)(=O)=O)cc1Cl`, under setting [1], the concentration at half-maximal activity (AC50) was 11.2 µM [rising, partial curve, poor fit].

With `Cc1ccccc1C(=O)Nc1ccc2c(c1)nc(CCNC(=O)c1ccco1)n2C`, the AC50 under setting [1] was 17.8 µM [falling, partial curve, poor fit].

Turning to `CCOc1ccc(NCCC(=O)c2ccc3c(c2)OCO3)cc1`, the AC50 under setting [1] was 3.26 µM [falling, single point].

Take `COc1ccc(CC(=O)OCC(=O)NC(=O)NC2CCCC2)cc1`: the AC50 under setting [1] is 29.1 µM [rising, single point].

For `COc1c(C)cc(Br)cc1C(=O)NC(=S)NCc1ccco1`, the AC50 under setting [1] is 3.98 µM [rising, partial curve, poor fit].

As for `COc1ccc(/C=C/C(=O)NCc2cnn(C)c2C)cc1COc1ccc(Br)cc1`, the AC50 under setting [1] is 25.1 µM [falling, single point].

In the case of `COc1ccc(OC)c(CN2CCC(CO)(CCOc3ccccc3)CC2)c1`, the AC50 under setting [1] is 35.5 µM [rising, single point].

As for `O=S(=O)(/N=C(/Nc1ccccc1F)c1ccccc1)c1ccccc1`, the AC50 under setting [1] is 1.3 µM [falling, full curve, poor fit].

`CC(CN1CCCCC1)OC(=O)c1ccc(Cl)cc1Cl` (configuration not stated): under setting [1], the concentration at half-maximal activity (AC50) was 3.26 µM [rising, single point].

In the case of `COc1ccc(C2=Nn3c(nnc3-c3cc(C)[nH]n3)SC2)cc1`, under setting [2], the AC50 is 12.6 µM [falling, single point].

Regarding `CCN(CC)CCOC(=O)c1ccc(NC(=O)CCCN2C(=O)/C(=C/c3cccs3)SC2=S)cc1`, the AC50 under setting [1] was 3.98 µM [falling, full curve].

In the case of `CC(=O)Nc1ccc2nc(-c3cccs3)[nH]c2c1`, the AC50 under setting [1] is 12.6 µM [falling, partial curve, poor fit].

`COc1cc(CNc2ccccc2SC)cc(OC)c1OC`: the half-maximal activity concentration (AC50) under setting [1] was 0.259 µM [rising, full curve, poor fit].

Take `COc1cccc(NC(=O)c2cc(=O)c3ccccc3o2)c1`: the AC50 under setting [1] was 35.5 µM [falling, single point].

As to `O=C(NCCc1cccc(Cl)c1)c1cccc([N+](=O)[O-])c1`, the concentration at half-maximal activity (AC50) by setting is: under setting [1], 29.1 µM [falling, single point]; under setting [2], 32.6 µM [rising, partial curve, poor fit].

With `Cc1cc(C)c(S(=O)(=O)c2ccccc2)c(OC(=O)c2ccc(Cl)cc2Cl)n1`, the AC50 under setting [1] is 20.6 µM [rising, partial curve, poor fit].

As for `CC1=C(C)CC(C(=O)NC2CCN(C(C)C)CC2)C(C(=O)O)C1` (configuration not stated), the concentration at half-maximal activity (AC50) under setting [1] is 3.98 µM [falling, partial curve, poor fit].

Regarding `O=C(CCSc1nc(-c2ccco2)cc(C(F)(F)F)n1)NCCN1CCOCC1`, the AC50 under setting [1] was 20 µM [falling, partial curve, poor fit].

For the compound `COC(=O)c1ccccc1NC(=O)C1CCN(c2ncnc3c2nc2n3CCCCC2)CC1`, under setting [1], the AC50 is 35.5 µM [falling, single point].

`COc1ccc(Br)c(C(=O)Nc2cccc(Cl)c2Cl)c1`: under setting [1], the AC50 is 11.6 µM [rising, partial curve, poor fit].

With `O=C(NC1CC1)c1cc(-c2ccc(Br)cc2)nc2ccccc12`, the AC50 under setting [1] was 6.51 µM [rising, partial curve, poor fit].

For the compound `Cc1ccc(C(=O)N2CCCCC2)cc1NC1=C(Cl)C(=O)N(Cc2ccccc2)C1=O`, the concentration at half-maximal activity (AC50) under setting [1] is 29.1 µM [falling, single point].

On to `O=C(NCCSCc1ccccc1)c1ccccc1`, for which, under setting [1], the AC50 is 2.91 µM [falling, single point].

With `CN(CC(=O)Nc1ccccc1C(=O)N1CCCC1)S(=O)(=O)c1ccc(Cl)cc1`, the AC50 under setting [1] is 0.146 µM [falling, full curve, poor fit].

As to `COC(=O)Cc1ccc(NC(=S)NCC(C)C)cc1`, the AC50 under setting [1] was 1.46 µM [rising, partial curve, poor fit].

With `CCCc1cc(=O)[nH]c(SCC(=O)Nc2ccc3c(c2)CCC3)n1`, the concentration at half-maximal activity (AC50) under setting [1] was 11.2 µM [rising, partial curve, poor fit].

As to `COc1ccc(N2C(=O)CSC23CCC(C(C)(C)C)CC3)cc1` (configuration not stated), the AC50 under setting [1] was 6.31 µM [falling, single point].

In the case of `Cn1ccnc1SCC(=O)Nc1cccc(C(F)(F)F)c1`, the AC50 under setting [1] was 0.82 µM [rising, full curve, poor fit].

Take `CCN1/C(=C/C=C/c2oc3ccc(-c4ccccc4)cc3[n+]2CC)Oc2ccc(-c3ccccc3)cc21`: the AC50 was 2.82 µM [falling, full curve] under setting [1] and 11.2 µM [rising, partial curve, poor fit] under setting [2].

With `COC(=O)c1c(NC(=O)/C=C/C(=O)O)sc(C)c1-c1ccc(C(C)C)cc1`, the AC50 under setting [1] is 10 µM [falling, single point].

`COc1cccc(/C=N/NC(=O)c2c(C)nc3ccc(Br)cn23)c1O`: under setting [1], the half-maximal activity concentration (AC50) is 7.94 µM [falling, partial curve, poor fit].

With `CCn1c(SCC(=O)NC2CCCCC2)nnc1-c1cc2cccc(OC)c2o1`, the half-maximal activity concentration (AC50) under setting [1] is 8.91 µM [falling, single point].

In the case of `CN(C)c1ccc(/C=C/C(=O)c2ccccc2O)cc1`, the concentration at half-maximal activity (AC50) under setting [1] is 5.01 µM [falling, full curve].

`COc1ccc(-c2cc(C(=O)NCc3cccnc3)no2)cc1OC`: under setting [1], the concentration at half-maximal activity (AC50) was 10 µM [falling, partial curve].

For the compound `Cc1ccc(NC(=O)CSc2ncc(S(=O)(=O)c3ccccc3)c(=O)[nH]2)cc1C`, the concentration at half-maximal activity (AC50) runs as follows: under setting [1], 18.4 µM [falling, partial curve, poor fit]; under setting [2], 23.1 µM [rising, partial curve, poor fit].

Regarding `Cc1nnc(SCC(=O)NC(=O)Nc2ccc3c(c2)OCCO3)n1N`, under setting [1], the AC50 was 6.31 µM [falling, full curve].

`COc1cc(OC)cc(C(=O)NNC(=O)c2ccccn2)c1`: the half-maximal activity concentration (AC50) under setting [1] is 9.2 µM [falling, single point].

Regarding `COc1cccc(NC(=O)c2ccc(-c3ccc([N+](=O)[O-])cc3)o2)c1`, the half-maximal activity concentration (AC50) under setting [1] was 12.6 µM [falling, partial curve, poor fit].

Regarding `COC(=O)c1sc2nc3c(cc2c1N)CCCC3`, the AC50 under setting [2] was 0.708 µM [rising, full curve].

`O=C(NC(=O)N1CCN(c2ccc(F)cc2)CC1)c1ccccc1`: under setting [1], the AC50 is 14.6 µM [rising, partial curve, poor fit].

For `CCCSc1nnc(-c2ccccc2NC(=O)CC)c(=O)[nH]1`, the AC50 under setting [1] was 5.8 µM [rising, partial curve, poor fit].

For `O=C(O)/C=C/C(=O)Nc1ccc(OCc2ccccc2)cc1`, under setting [1], the AC50 was 0.447 µM [falling, full curve, poor fit].

Consider `COc1cc(CCC(=O)Nc2ncc(C)s2)cc(OC)c1OC`, for which, under setting [1], the AC50 was 31.6 µM [falling, single point].

For `CS(=O)(=O)N(CC(=O)Nc1ccc2c(c1)OCCO2)Cc1ccccc1`, the AC50 under setting [1] is 5.8 µM [rising, partial curve, poor fit].

As for `O=C(COc1ccccc1)Nc1nnc(-c2ccco2)o1`, the half-maximal activity concentration (AC50) under setting [1] was 12.6 µM [falling, partial curve, poor fit].

As for `Oc1cccc(/C=N/NC(=S)Nc2cccnc2)c1O`, the half-maximal activity concentration (AC50) under setting [1] is 25.9 µM [falling, single point].

In the case of `CC(C)(C)C1CCc2c(sc(NC(=O)c3cccs3)c2C(N)=O)C1` (configuration not stated), under setting [1], the concentration at half-maximal activity (AC50) is 20.6 µM [falling, partial curve, poor fit].

As to `CN(C(=O)CSc1nc2cc(Cl)ccc2c(=O)n1Cc1ccco1)C1CCS(=O)(=O)C1` (configuration not stated), the concentration at half-maximal activity (AC50) under setting [1] was 20 µM [falling, single point].

In the case of `Cc1cc2c(Nc3ccc(O)cc3)ncnc2s1`, under setting [1], the AC50 is 4.47 µM [falling, partial curve, poor fit].

`O=C(c1ccc2ccccc2c1)c1c[nH]cc1-c1ccccc1`: under setting [1], the concentration at half-maximal activity (AC50) was 3.66 µM [rising, partial curve, poor fit].

Regarding `Cc1ccc(SCC(=O)OCC(=O)N(C)CC(=O)Nc2ccccc2Cl)cc1`, the AC50 under setting [1] is 23.1 µM [falling, single point].

For `S=c1oc(-c2ccncc2)nn1CCc1ccncc1`, the AC50 under setting [1] is 0.82 µM [rising, full curve, poor fit].

These data come from PubChem BioAssay AID493014 (National Center for Advancing Translational Sciences (NCATS), 2011).
